Assay results as given in publication doi:10.1101/2022.12.20.521243.
Results are given in words; binding and its absence hold for the method and conditions named. Binding seen in cells or lysates may run through a third protein. Here binding means that the protein was enriched with, or labelled near, the bait; the list need not be complete. Where a sequence is shown, tags or fusion partners need not be part of it.

Target: T1, XAP5 … …, epitope-tagged (XCT-YFP-HA) (Arabidopsis thaliana) (UniProt Q8H110)
T1 sequence: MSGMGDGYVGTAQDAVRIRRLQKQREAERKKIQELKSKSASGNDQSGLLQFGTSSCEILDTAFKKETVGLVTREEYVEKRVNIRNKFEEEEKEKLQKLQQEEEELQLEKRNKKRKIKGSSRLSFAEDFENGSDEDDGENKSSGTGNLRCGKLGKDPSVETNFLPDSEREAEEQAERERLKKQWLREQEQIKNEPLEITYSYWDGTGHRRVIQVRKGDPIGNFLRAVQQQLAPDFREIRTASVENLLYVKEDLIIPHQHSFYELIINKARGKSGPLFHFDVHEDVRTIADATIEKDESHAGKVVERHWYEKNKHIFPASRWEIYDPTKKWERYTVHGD
Test: affinity purification with mass spectrometry

Row | binding | Substance
1 | binds | PRP22
2 | binds | PRECURSOR RNA PROCESSING 19 (PRP19)
